{"source": "the supplement of paper PMC10849652", "note": "The other results are listed elsewhere or left out."}
{"compound": "CNC(=O)c1ccc(Nc2ncc(C(F)(F)F)c(NCc3nccnc3N(C)S(C)(=O)=O)n2)cc1 [defactinib]", "experiment": "log2 fold change, soluble protein after heating vs DMSO (PISA); higher = thermal stabilisation; K562 cells, 10 uM, 30 min; active = over 0.2 and 3.5 SD of the protein, either way, in both replicates (recomputed)", "procedure,_shortened": "(§1)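 K562 cells at 2×10^6 cells/mL were treated for 30 min with 10 μM compound, and aliquots were heated for 3 min over 48°C-58°C before pooling. Extraction used PBS with 0.5% NP-40 at 4°C, and soluble protein was the supernatant after 21,000xg for 90 min, measured by TMTpro 16plex LC-MS/MS with channel sums equalised. Thermal stability values, relative to control samples and from duplicates, are log2 fold changes.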"}
{"target": "GYS1 (UniProt P13807)", "log2 fold change": "inactive: 0.057"}
{"target": "HBQ1 (UniProt P09105)", "log2 fold change": "inactive: -0.009"}
{"target": "GTF2A2 (UniProt P52657)", "log2 fold change": "inactive: -0.025"}
{"target": "HBZ (UniProt P02008)", "log2 fold change": "inactive: 0.011"}
{"target": "GTF2A1 (UniProt P52655)", "log2 fold change": "inactive: -0.038"}
{"target": "HBA1 (UniProt P69905)", "log2 fold change": "inactive: -0.014"}
{"target": "GSTP1 (UniProt P09211)", "log2 fold change": "inactive: -0.033"}
{"target": "GTF2E2 (UniProt P29084)", "log2 fold change": "inactive: -0.085"}
{"target": "HEATR3 (UniProt Q7Z4Q2)", "log2 fold change": "inactive: -0.048"}
{"target": "GUF1 (UniProt Q8N442)", "log2 fold change": "inactive: -0.205"}
{"target": "GYG1 (UniProt P46976)", "log2 fold change": "inactive: -0.042"}
{"target": "GTF2H3 (UniProt Q13889)", "log2 fold change": "inactive: 0.009"}
{"target": "HAX1 (UniProt O00165)", "log2 fold change": "inactive: -0.008"}
{"target": "HDDC2 (UniProt Q7Z4H3)", "log2 fold change": "inactive: -0.014"}
{"target": "HDAC1 (UniProt Q13547)", "log2 fold change": "inactive: -0.15"}
{"target": "GUK1 isoform 2 (UniProt Q16774)", "log2 fold change": "inactive: -0.162"}
{"target": "GSK3B isoform 2 (UniProt P49841)", "log2 fold change": "inactive: -0.015"}
{"target": "HECTD1 (UniProt Q9ULT8)", "log2 fold change": "inactive: -0.026"}
{"target": "HAUS4 (UniProt Q9H6D7)", "log2 fold change": "inactive: 0.019"}
{"target": "HDAC2 (UniProt Q92769)", "log2 fold change": "inactive: -0.035"}
{"target": "GUSB (UniProt P08236)", "log2 fold change": "inactive: -0.055"}
{"target": "H2AFX (UniProt P16104)", "log2 fold change": "inactive: 0.53"}
{"target": "GSTO1 (UniProt P78417)", "log2 fold change": "inactive: 0.001"}
{"target": "HDAC6 (UniProt Q9UBN7)", "log2 fold change": "inactive: -0.028"}
{"target": "HADHB (UniProt P55084)", "log2 fold change": "inactive: -0.18"}
{"target": "GSTM4 (UniProt Q03013)", "log2 fold change": "inactive: -0.086"}
{"target": "HEXA (UniProt P06865)", "log2 fold change": "inactive: -0.008"}
{"target": "GTF3A (UniProt Q92664)", "log2 fold change": "inactive: -0.18"}
{"target": "H2AZ1 (UniProt P0C0S5)", "log2 fold change": "inactive: 0.259"}
{"target": "GSR (UniProt P00390)", "log2 fold change": "inactive: -0.016"}
{"target": "HEATR5B (UniProt Q9P2D3)", "log2 fold change": "inactive: -0.099"}
{"target": "HEXB (UniProt P07686)", "log2 fold change": "inactive: -0.002"}
{"target": "HAT1 (UniProt O14929)", "log2 fold change": "inactive: -0.139"}
{"target": "HDGFL2 (UniProt Q7Z4V5)", "log2 fold change": "inactive: -0.07"}
{"target": "GTF3C5 isoform 3 (UniProt Q9Y5Q8)", "log2 fold change": "inactive: -0.069"}
{"target": "GTF2E1 (UniProt P29083)", "log2 fold change": "inactive: -0.272"}
{"target": "H1FX (UniProt Q92522)", "log2 fold change": "inactive: 0.336"}
{"target": "GTF3C4 (UniProt Q9UKN8)", "log2 fold change": "inactive: -0.081"}
{"target": "HDHD2 (UniProt Q9H0R4)", "log2 fold change": "inactive: 0"}
{"compound": "CNCc1ccc(-c2[nH]c3cc(F)cc4c3c2CCNC4=O)cc1 [rucaparib]", "experiment": "log2 fold change, soluble protein after heating vs DMSO (PISA); higher = thermal stabilisation; K562 cells, 10 uM, 30 min; active = over 0.2 and 3.5 SD of the protein, either way, in both replicates (recomputed)", "procedure,_shortened": "as §1"}
{"target": "GYS1 (UniProt P13807)", "log2 fold change": "inactive: 0.077"}
{"target": "HBQ1 (UniProt P09105)", "log2 fold change": "inactive: -0.027"}
{"target": "GTF2A2 (UniProt P52657)", "log2 fold change": "inactive: -0.061"}
{"target": "HBZ (UniProt P02008)", "log2 fold change": "inactive: -0.026"}
{"target": "GTF2A1 (UniProt P52655)", "log2 fold change": "inactive: -0.021"}
{"target": "HBA1 (UniProt P69905)", "log2 fold change": "inactive: -0.036"}
{"target": "GSTP1 (UniProt P09211)", "log2 fold change": "inactive: -0.046"}
{"target": "GTF2E2 (UniProt P29084)", "log2 fold change": "inactive: 0.03"}
{"target": "HEATR3 (UniProt Q7Z4Q2)", "log2 fold change": "inactive: 0.081"}
{"target": "GUF1 (UniProt Q8N442)", "log2 fold change": "inactive: -0.003"}
{"target": "GYG1 (UniProt P46976)", "log2 fold change": "inactive: 0.062"}
{"target": "GTF2H3 (UniProt Q13889)", "log2 fold change": "inactive: 0.09"}
{"target": "HAX1 (UniProt O00165)", "log2 fold change": "inactive: 0.082"}
{"target": "HDDC2 (UniProt Q7Z4H3)", "log2 fold change": "inactive: -0.014"}
{"target": "HDAC1 (UniProt Q13547)", "log2 fold change": "inactive: 0.023"}
{"target": "GUK1 isoform 2 (UniProt Q16774)", "log2 fold change": "inactive: 0.175"}
{"target": "GSK3B isoform 2 (UniProt P49841)", "log2 fold change": "inactive: 0.059"}
{"target": "HECTD1 (UniProt Q9ULT8)", "log2 fold change": "inactive: 0.056"}
{"target": "HAUS4 (UniProt Q9H6D7)", "log2 fold change": "inactive: 0.337"}
{"target": "HDAC2 (UniProt Q92769)", "log2 fold change": "inactive: -0.006"}
{"target": "GUSB (UniProt P08236)", "log2 fold change": "inactive: 0.048"}
{"target": "H2AFX (UniProt P16104)", "log2 fold change": "inactive: 0.347"}
{"target": "GSTO1 (UniProt P78417)", "log2 fold change": "inactive: -0.09"}
{"target": "HDAC6 (UniProt Q9UBN7)", "log2 fold change": "inactive: -0.028"}
{"target": "HADHB (UniProt P55084)", "log2 fold change": "inactive: 0.131"}
{"target": "GSTM4 (UniProt Q03013)", "log2 fold change": "active: -0.385"}
{"target": "HEXA (UniProt P06865)", "log2 fold change": "inactive: -0.07"}
{"target": "GTF3A (UniProt Q92664)", "log2 fold change": "inactive: 0.206"}
{"target": "H2AZ1 (UniProt P0C0S5)", "log2 fold change": "inactive: 0.396"}
{"target": "GSR (UniProt P00390)", "log2 fold change": "inactive: -0.025"}
{"target": "HEATR5B (UniProt Q9P2D3)", "log2 fold change": "inactive: 0.028"}
{"target": "HEXB (UniProt P07686)", "log2 fold change": "inactive: -0.078"}
{"target": "HAT1 (UniProt O14929)", "log2 fold change": "inactive: -0.066"}
{"target": "HDGFL2 (UniProt Q7Z4V5)", "log2 fold change": "inactive: -0.051"}
{"target": "GTF3C5 isoform 3 (UniProt Q9Y5Q8)", "log2 fold change": "inactive: -0.173"}
{"target": "GTF2E1 (UniProt P29083)", "log2 fold change": "inactive: -0.126"}
{"target": "H1FX (UniProt Q92522)", "log2 fold change": "inactive: 0.219"}
{"target": "GTF3C4 (UniProt Q9UKN8)", "log2 fold change": "inactive: 0.029"}
{"target": "HDHD2 (UniProt Q9H0R4)", "log2 fold change": "inactive: -0.049"}
